## Percent effect of library compounds

Mtb cholesterol medium: 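Phenotypic screen: M. tuberculosis growth, cholesterol and DPPC medium, 4 days; the read-out is not stated. Tested at 50 µM. Direction is inferred from retests: higher values go with more growth inhibition. Size under these conditions: about 69,000 compounds, about 370 of them at 50% or above in at least one test.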
Mtb glucose medium: 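Growth of Mycobacterium tuberculosis over 3 days (7H9 medium with glucose and tyloxapol); the read-out is not stated. Concentration: 50 µM. Direction is inferred from retests: higher values go with more growth inhibition. About 69,000 compounds were tested under these conditions; 1.1% (about 760) showed 50% or more at least once.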

The filed quantity is “Percent Effect” (%).
The record does not define 0% and 100%; most values in the screen are far below 50% and negative numbers occur (in some assays of this library far below -100).
Compounds were drawn at random from those tested, without regard to their results.
Two or more numbers in one place are separate tests of the same structure; such repeats can differ widely.

* CN(Cc1noc(-c2ccccc2)n1)C(=O)CSc1nnc(N)s1 : Mtb cholesterol medium: -9.218%; Mtb glucose medium: -34.79%
* Cc1ccc([C@@H]2CN(C(=O)c3ccc[nH]3)C[C@H]2NC(=O)C2CC2)cc1 : Mtb cholesterol medium: -32%; Mtb glucose medium: -17.68%
* O=C(O)C(c1ccc2[nH]ccc2c1)N1CCOCC1 (stereo unspecified) : Mtb cholesterol medium: -26.87%; Mtb glucose medium: -53.91%
* Cc1nnc2n1CCN(C(=O)C(OC1CCCC1)c1ccccc1)C2 (stereo unspecified) : Mtb cholesterol medium: -8.462%; Mtb glucose medium: -28.45% and -5.286%
* CN1Cc2c(C(=O)NCC3CCCO3)ncn2-c2ccccc2S1(=O)=O (stereo unspecified) : Mtb cholesterol medium: 8.177%; Mtb glucose medium: 7.332%
* Cc1nn(C)c2ncc(S(=O)(=O)N3CCCC(C(N)=O)C3)cc12 (stereo unspecified) : Mtb cholesterol medium: -22.5%; Mtb glucose medium: -18.12%
* Cc1nn(C)c(C)c1NC(=O)c1cccc(CN2CCS(=O)(=O)CC2)c1 : Mtb cholesterol medium: -2.111%; Mtb glucose medium: 9.018%
* Cc1ccc(C)c(S(=O)(=O)NCCC(=O)NCc2ccoc2)c1 : Mtb cholesterol medium: -67.68% and 7.791%; Mtb glucose medium: -4.93%
* CC(C)C(NC(=O)Nc1cnn(CC(N)=O)c1)c1ccc(Cl)cc1 (stereo unspecified) : Mtb cholesterol medium: -10.36%; Mtb glucose medium: 4.1%
* COc1ccc(C(=O)COc2coc(CN3CCCCC3)cc2=O)cc1 : Mtb cholesterol medium: -4.459%; Mtb glucose medium: 31.39%
* Cn1ncc2c(=O)[nH]c(CN3CCCC3c3ccsc3)nc21 (stereo unspecified) : Mtb cholesterol medium: 0.3091%; Mtb glucose medium: 3.222% and -62.02%
* O=C(c1cc(-n2cnnn2)ccc1Cl)N1CCOCC1 : Mtb cholesterol medium: -1.877%; Mtb glucose medium: 2.957%
* CC(C)(C)SCCCC(=O)N1CCC(Nc2cccnn2)CC1 : Mtb cholesterol medium: -8.654%; Mtb glucose medium: 34.66%
* CC(C)NC(=O)CN(C)C1CCN(c2ccc(Cl)cn2)CC1 : Mtb cholesterol medium: 7.769%; Mtb glucose medium: 18.93%
* CCOc1ccc(C(=O)N2CCC(Oc3ccccc3)(C(=O)O)CC2)o1 : Mtb cholesterol medium: -14.77%; Mtb glucose medium: -17.46%
* CCc1cccc(OC2CN(C(=O)[C@@H](N)[C@@H](C)O)C2)c1 : Mtb cholesterol medium: -9.196%; Mtb glucose medium: -13.66%
* c1cc(-c2nnn3c2COC(CNCc2nccs2)C3)ccn1 (stereo unspecified) : Mtb cholesterol medium: -12.52%; Mtb glucose medium: 3.405%
* CCc1nc(C2CCCN2C(=O)c2cc[nH]n2)no1 (stereo unspecified) : Mtb cholesterol medium: -8.446%; Mtb glucose medium: 0.2652%
* Cc1cccc(-n2nnnc2C2(NCc3ccco3)CCCCC2)c1 : Mtb cholesterol medium: 4.17%; Mtb glucose medium: 25.83%
* CC(CO)(NC(=O)NCCc1ccc(Br)s1)C1CC1 (stereo unspecified) : Mtb cholesterol medium: 23.68%; Mtb glucose medium: 27.18% and 37.9%
* OCc1csc(N2CCCC(COc3cccc(F)c3)C2)n1 (stereo unspecified) : Mtb cholesterol medium: 2.879% and 8.462%; Mtb glucose medium: -1.65%
* COc1ccc(CN2CCn3cncc3C2)cc1Cn1cncn1 : Mtb cholesterol medium: 2.284%; Mtb glucose medium: 4.449%
* O=C(O)C(F)(F)F.[H][C@@]12CN(C(=O)c3ccoc3)C[C@]1([H])OCCN2c1ncccn1 : Mtb cholesterol medium: -9.12%; Mtb glucose medium: 5.749%
* CCn1cc(CN2CCC(O)(Cn3nc(C)ccc3=O)CC2)cn1 : Mtb cholesterol medium: -2.593%; Mtb glucose medium: 4.683%
* Cc1ncsc1C(=O)N1CCc2nnc(C3CCCCN3C)n2CC1 (stereo unspecified) : Mtb cholesterol medium: -6.973% and -36.67%; Mtb glucose medium: -17.56%
* COCCN1CCC2(CCCN(C(=O)c3cncn3C)C2)CC1.O=C(O)C(F)(F)F : Mtb cholesterol medium: -1.79%; Mtb glucose medium: -18.23% and -5.074%
* CCCc1nnc(N2CC[C@](C)(O)[C@H](C)C2)s1 : Mtb cholesterol medium: -11.13%; Mtb glucose medium: -3.949%
* O=S(=O)(c1ccccc1)N1CCN(Cc2ccc(F)cc2Br)CC1 : Mtb cholesterol medium: 8.663%; Mtb glucose medium: 16.55%
* COc1ccccc1OCCc1nnc(NC(=O)C2CC23CCC3)s1 (stereo unspecified) : Mtb cholesterol medium: -26.38% and -14.27%; Mtb glucose medium: -31.65%
* Cc1c(C(=O)N2CCC2(C)C)nnn1-c1cccc2cccnc12 : Mtb cholesterol medium: -12.07%; Mtb glucose medium: 2.493% and -26.5%
* Cc1nc(C)c(C(=O)N2CCc3nnc(C4CCCCN4C)n3CC2)s1 (stereo unspecified) : Mtb cholesterol medium: 6.817% and 9.266%; Mtb glucose medium: -22.91%
* CCCc1nc(C(=O)NCCN2CCC(c3ccccc3C)C2)cs1 (stereo unspecified) : Mtb cholesterol medium: -3.621%; Mtb glucose medium: 7.647% and 13.62%
* O=C(O)C(F)(F)F.[H][C@]12CN(CCN3CCCC3)C(=O)[C@@]1([H])CN(c1ncccn1)C2 : Mtb cholesterol medium: -1.403%; Mtb glucose medium: 5.578%
* CN1CCC(N(Cc2ccccc2)C(=O)c2ccn3ccnc3c2)CC1 : Mtb cholesterol medium: -18.13%; Mtb glucose medium: -30.75% and -1.863%
* COc1nn(C)c2c1CCCN(C(=O)c1cccc3cccnc13)C2.O=C(O)C(F)(F)F : Mtb cholesterol medium: -3.434%; Mtb glucose medium: 12.26%
* CCN(CCO)C(=O)c1cc(Cn2c(C)nc3ccccc32)[nH]n1 : Mtb cholesterol medium: -20.05%; Mtb glucose medium: -4.905% and -12.41%

Once more, the final 3:

| Compound | Mtb cholesterol medium | Mtb glucose medium |
|---|---|---|
| `CN1CCC(N(Cc2ccccc2)C(=O)c2ccn3ccnc3c2)CC1` | -18.13% | -30.75% and -1.863% |
| `COc1nn(C)c2c1CCCN(C(=O)c1cccc3cccnc13)C2.O=C(O)C(F)(F)F` | -3.434% | 12.26% |
| `CCN(CCO)C(=O)c1cc(Cn2c(C)nc3ccccc32)[nH]n1` | -20.05% | -4.905% and -12.41% |

From ChEMBL document CHEMBL3988442, “University of Dundee, Small-Polar-MMV Screening Library” (2021).